Some of the results follow. These are further read-outs of the screen, such as a control signal, another cell line or another target. No call is given for them. Compounds called inactive in the main read-out are mostly missing here. Words in brackets tell the shape of the fitted curve; partial curves, single points and poor fits give uncertain potencies.
Assay: qHTS Assay for Modulators of Lamin A Splicing
Details: HeLa LMNA splicing GFP/RFP minigene ratio, 48 h
Outline: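 Read-out is the ratio of GFP to DsRed2 object intensity, acquired by 488 nm laser-scanning cytometry on HeLa lamin A-EGFP minigene reporter cells. Compound incubation 48 hrs at 37 °C in Opti-MEM with 2% FBS; DMSO 0.5% final.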

[1] = measured here: RFP viability control channel
[2] = measured here: GFP splicing reporter channel

Compound | AC50 [1] | AC50 [2]
CO/N=C/NC(=O)Cc1cn(-c2ncc(C(F)(F)F)cc2Cl)c2ccccc12 | 22.4 µM [rising, single point] | –
Cc1cc(C)cc(-n2ccn(CC(=O)NCCc3ccccc3)c(=O)c2=O)c1 | 0.00447 µM [falling, full curve, poor fit] | –
COc1cccc(/C=N/NC(=S)Nc2cccc(C(=O)O)c2)c1O | – | 1.26 µM [rising, single point]
CCN(CC)c1ccc(NC(=O)C2CC(=O)N(Cc3ccccc3)C2)cc1 (stereo not given) | 1 µM [falling, full curve, poor fit] | –
COc1ccccc1NC(=O)CSc1nc2n[nH]c(C)c2c(=N)n1-c1ccccc1Cl | 10 µM [rising, partial curve] | –
COc1ccc(/C(N)=N/OC(=O)CCCc2ccccc2)cc1OC | 11.2 µM [rising, partial curve] | –
COc1ccc(-n2c(/C=C/c3cccc4ccccc34)nc3ccccc3c2=O)cc1OC | – | 1 µM [falling, full curve, poor fit]
Cc1ccc(NC(=O)c2ccc(NCCN)c([N+](=O)[O-])c2)cc1 | 12.6 µM [rising, single point] | –
COc1ccc(CNC(=O)COC(=O)CCc2c[nH]c3ccccc23)cc1 | – | 35.5 µM [rising, single point]
Cc1cc(C)n(-c2ccc(C(=O)Nc3ccc(S(=O)(=O)N(C)C)cc3)cc2)n1 | 15.8 µM [rising, partial curve] | 20 µM [rising, partial curve, poor fit]
COc1ccc(CCN(C)c2ccc(S(=O)(=O)N3CCCC3)cc2[N+](=O)[O-])cc1OC | 22.4 µM [rising, single point] | 12.6 µM [rising, single point]
O=C1/C(=C\c2cccs2)SC(=S)N1C1CCS(=O)(=O)C1 (stereo not given) | – | 11.2 µM [falling, single point]
Cc1ccc(S(=O)(=O)Nc2ccccc2CNc2c(C)n(C)n(-c3ccccc3)c2=O)cc1 | 35.5 µM [rising, single point] | –
O=C(CCl)Nc1cc(-c2ccccc2)nn1-c1ccccc1 | 35.5 µM [falling, single point] | 35.5 µM [falling, single point]
CC(C)c1ccccc1OCC(=O)NN1C(=O)c2ccccc2C1=O | 0.708 µM [falling, full curve, poor fit] | –
COc1ccc2cc(CN(CCO)C(=O)c3ccc(Br)cc3)c(=O)[nH]c2c1 | 35.5 µM [rising, single point] | –
Cc1cc(O)c(C(C)C)cc1NC(=O)c1ccc(Cl)cc1 | 6.31 µM [rising, partial curve, poor fit] | –
S=C(NCc1ccco1)Nc1ccc(Cl)c(Cl)c1 | 15.8 µM [rising, partial curve] | 2 µM [rising, partial curve]
Cc1ccc2nc(Cl)nc(-c3ccccc3)c2c1 | 22.4 µM [falling, single point] | 35.5 µM [falling, single point]
O=C(CCSCc1ccccc1Cl)N1CCN(c2ccccn2)CC1 | 14.1 µM [rising, single point] | 11.2 µM [rising, partial curve, poor fit]
COc1ccc2c(c1OC)C(=O)OC2 | – | 0.00316 µM [rising, full curve, poor fit]
Cc1ccccc1Nc1ncnc2c1cnn2-c1ccccc1 | 12.6 µM [rising, partial curve] | –
O=C(Nc1nc(-c2cccs2)cs1)c1ccc(S(=O)(=O)N2CCCC2)cc1 | 7.94 µM [rising, partial curve] | –
O=C(c1ccc2ccccc2n1)N1CCN(c2ccccc2O)CC1 | – | 3.98 µM [falling, single point]
CS(=O)c1nc(-c2ccc(Br)cc2)cc(-c2ccccc2)c1C#N (stereo not given) | 35.5 µM [falling, single point] | 35.5 µM [falling, single point]
Cc1sc2ncnc(NCC3COc4ccccc4O3)c2c1C (stereo not given) | 0.708 µM [rising, full curve] | 0.398 µM [rising, full curve]
O=C1CSc2ccc(C(=O)Nc3cccc(S(=O)(=O)Nc4ccc(Br)cc4)c3)cc2N1 | 22.4 µM [falling, partial curve, poor fit] | 15.8 µM [falling, single point]

In the list so far, these contain a nitro group on carbon:
Compound | AC50 [1] | AC50 [2]
Cc1ccc(NC(=O)c2ccc(NCCN)c([N+](=O)[O-])c2)cc1 | 12.6 µM [rising, single point] | –
COc1ccc(CCN(C)c2ccc(S(=O)(=O)N3CCCC3)cc2[N+](=O)[O-])cc1OC | 22.4 µM [rising, single point] | 12.6 µM [rising, single point]

Later entries.

Compound | AC50 [1] | AC50 [2]
COc1ccc2c(c1)O[C@H](c1ccc3c(c1)OCO3)[C@@H](OC(=O)N[C@H]1CCCc3ccccc31)C2=O | 10 µM [rising, partial curve] | –
Cc1ccc(-n2[nH]c(C)c(/C=N/n3c(C)nc4ccccc4c3=O)c2=O)cc1 | 17.8 µM [rising, partial curve] | 0.398 µM [rising, partial curve, poor fit]
C/C(=N\NC(=O)Cc1csc(N2CCOCC2)n1)c1ccc(Cl)c(Cl)c1 | 20 µM [falling, partial curve, poor fit] | 35.5 µM [falling, single point]
Cc1ccc(-c2csc(NC(=O)C3CC(=O)N(Cc4ccco4)C3)n2)cc1 (stereo not given) | 14.1 µM [rising, single point] | –
COc1ccc(NC(=O)c2oc3ccc(S(=O)(=O)N4CCOCC4)cc3c2C)c(OC)c1 | – | 35.5 µM [falling, partial curve, poor fit]
CC(Oc1ccccc1)C(=O)Nc1ccc(C(=O)OCc2cc(=O)n3nc(C(C)C)sc3n2)cc1 (stereo not given) | 1.78 µM [rising, full curve] | –
Cc1c(C(=O)N2CCc3ccccc3C2)oc2ccc(S(=O)(=O)N3CC(C)CC(C)C3)cc12 (stereo not given) | 3.16 µM [rising, full curve] | –
CCOC(=O)c1c(C)[nH]c2c1-c1ccccc1C(=O)C2=O | 3.16 µM [falling, full curve] | 2.82 µM [falling, full curve]
Cc1nc2c(C(=O)N3CCCCC3)cnn2c(C)c1Cc1ccccc1F | 14.1 µM [rising, single point] | –
Clc1ccccc1Sc1ccc(-c2ccccn2)s1 | 8.91 µM [falling, partial curve, poor fit] | –
CCN(Cc1ccncc1)S(=O)(=O)c1ccc(C(C)=O)cc1 | – | 0.708 µM [rising, full curve, poor fit]
COc1ccc(OC)c2c(C)cc(N3CCN(C(=O)c4ccc(F)cc4)CC3)nc12 | 11.2 µM [rising, partial curve] | 6.31 µM [rising, partial curve]
COc1ccc(CC(=O)NNc2ncnc3c2cnn3C)cc1OC | 11.2 µM [rising, single point] | 11.2 µM [rising, partial curve]
O=c1c2ccccc2nc2n1C1(CCCCC1)Cc1ccccc1-2 | 17.8 µM [rising, single point] | –
COc1ccc(-c2ccc(NS(=O)(=O)c3ccc(NC(C)=O)cc3)cc2)nn1 | 0.158 µM [rising, partial curve] | –
COc1ccc2c(c1)O[C@@H](c1cccc(C(F)(F)F)c1)[C@H](O)C2=O | 22.4 µM [rising, partial curve] | –
O=C(CSc1nnc(-c2ccccn2)n1Cc1ccco1)c1ccc(-c2ccccc2)cc1 | 15.8 µM [rising, single point] | –
Cc1cc(OCC(=O)NC(C)C)cc(C)c1Br | 35.5 µM [rising, single point] | 35.5 µM [rising, single point]
Cc1c(Cl)cccc1-n1ncc(C(=O)NCCN2CCN(C)CC2)c1C1CCN(C(=O)OC(C)(C)C)CC1 | 0.0112 µM [falling, full curve, poor fit] | 0.0141 µM [falling, full curve, poor fit]
CC(=O)O[C@H]1C(=O)[C@@]2(C)C([C@H](OC(=O)c3ccccc3)[C@]3(O)C[C@H](OC(=O)[C@H](O)[C@@H](NC(=O)c4ccccc4)c4ccccc4)C(C)=C1C3(C)C)[C@]1(OC(C)=O)CO[C@@H]1C[C@@H]2O (stereo not given in full) | 0.00178 µM [falling, full curve] | 0.0282 µM [falling, full curve]
COc1ccc(C(=O)CC(=O)c2ccc(C(C)(C)C)cc2)cc1 | 0.0708 µM [falling, full curve, poor fit] | 0.00112 µM [falling, full curve, poor fit]
CCOC(=O)CCC(=O)N1CCOCCN(C(=O)CCC(=O)OCC)CCOCC1 | 0.00562 µM [falling, full curve, poor fit] | –
O=C(Nc1ccc(Cl)cc1)c1cnn2c1NC(c1ccccc1)=CC2c1ccccc1 (stereo not given) | 14.1 µM [rising, partial curve] | 12.6 µM [rising, partial curve, poor fit]
Oc1c(N=NC(=S)Nc2ccccc2F)c2ccccc2n1Cc1ccc(Cl)cc1 | 12.6 µM [rising, partial curve, poor fit] | 0.0891 µM [rising, full curve, poor fit]
O=C1C(N2CCOCC2)=C(n2nnc3ccccc32)C(=O)c2ccccc21 | 35.5 µM [falling, single point] | 35.5 µM [falling, single point]
CCOC(=O)c1c(C)oc2c1c(C(c1cccnc1)N1CCOCC1)c(O)c1ccccc12 (stereo not given) | 22.4 µM [rising, single point] | 12.6 µM [rising, single point]
